Experimental data from paper doi:10.1101/2022.10.06.511132v1, “Development of Enterovirus anti-viral agents that target the viral 2C protein” (biorxiv, 2022).
pIC50: −log10 of the molar value.

Sequences of proteins named here, by UniProt entry; tags and fusion partners are left off. Residues count along the entry.
UniProt B9VUU3, 1227-1440, stated change not applied: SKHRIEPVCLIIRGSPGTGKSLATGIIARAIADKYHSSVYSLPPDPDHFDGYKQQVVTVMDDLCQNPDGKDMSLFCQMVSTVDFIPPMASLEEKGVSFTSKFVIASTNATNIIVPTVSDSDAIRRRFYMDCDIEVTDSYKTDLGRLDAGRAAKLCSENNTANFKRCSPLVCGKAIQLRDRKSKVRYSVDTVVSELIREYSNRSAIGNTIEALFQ

Molecular target: T1, EV-A71 Δ2C^116-329 (Enterovirus A71, UniProt B9VUU3)
T1 construct: N-terminally truncated mature protein 2C residues 116-329, cut from the genome polyprotein; N-terminal MBP tag and C-terminal His6 (kept, MBP-Δ2C-(His)6); codon-optimised synthetic gene in pMALc5x, E. coli Rosetta 2(DE3) pLysS; active as hexamer
Test: malachite green ATPase assay
Type: biochemical

Question: With `CNCCC(Oc1ccc(C(F)(F)F)cc1)c1ccccc1` (racemic) [fluoxetine, reference compound] as the compound, how does the pIC50 read?
Answer: 3.27
